Experimental data: PubChem BioAssay AID504784 (Drosophila RNAi Screening Center, 2011)

- Screen: 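Fly genes whose silencing alters how much lipid cells keep in droplets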 (primary screen)
- System: Drosophila Kc167 embryonic cells
- Reagent: long dsRNA against Drosophila genes, about 250 ng dsRNA per well
- Timing: 4 days
- Conditions: cells fed 400 µM oleic acid bound to BSA
- Measurement: 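Microscope images give a droplet-to-nucleus area ratio, taken as log and converted to a screen-wide B-score; higher values mean greater lipid storage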
- Scale: droplet/nuclear area B-score: higher = more stored lipid (overstorage)
In all, the deposit lists about 17,000 reagents; this is a random part of those with a known target gene and a result. 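Each column is one replicate's B-score; the combined score over replicates was not deposited, so single values may mislead.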 Names joined by + are all predicted targets of the reagent. Further read-outs or replicates are left out here. No sequences are given here.

gene	dsRNA	droplet/nuclear area B-score, replicate 1	droplet/nuclear area B-score, replicate 2
Tes	DRSC06996	-0.0584	1.63
gd	DRSC20336	-3.75	0.268
CG32462	DRSC11851	0.515	-0.346
CG6026	DRSC15950	-0.207	0.819
CG42540	DRSC08327	1.62	15.5
CG42540	DRSC08328	0.0288	1.88
CG42540	DRSC08593	0.196	3.87
CG42540	DRSC23011	-0.918	0.0119
CG13131	DRSC02227	0.0607	0.691
CG13131	DRSC23253	-0.53	-0.666
Brf	DRSC14166	0.441	-0.432
Brf	DRSC14167	-0.195	-0.21
Vps25	DRSC06486	1.79	-0.371
cv	DRSC17833	-0.0472	4.19
mdy	DRSC01559	-3.73	-3.62
mdy	DRSC02250	-3.41	0.626
fs(1)M3	DRSC18381	-0.223	0.0442
CG6321	DRSC10623	-1.09	-0.816
CG15818	DRSC02505	-0.616	0.111
Papst2	DRSC10924	-0.0466	0.227
pita	DRSC04006	0.697	-0.742
pita	DRSC04435	-0.0232	0.06
CG5439	DRSC02861	-0.0396	-0.00232
ZAP3	DRSC17852	1.55	-0.145
ZAP3	DRSC17853	-3.77	-0.449
ZAP3	DRSC18249	-0.547	0.0847
H15	DRSC03339	-2.5	2.27
H15	DRSC22199	0.00246	-1.67
ND-42	DRSC16754	0.129	-2.17
inaD	DRSC04694	-0.529	1.22
Dad1	DRSC02263	-0.612	-0.224
COX6AL2 + Ir75d	DRSC10081	1.84	-0.541
Glg1	DRSC11815	-0.243	-0.00271
Glg1	DRSC11816	0.307	1.5
Glg1	DRSC11817	-1.79	-0.538
Not11	DRSC04204	0.0173	0.19
l(2)05287	DRSC02151	-1.41	-5.62
l(2)05287	DRSC02152	0.679	0.0381
ssp7	DRSC18878	-1.99	-0.574
Twdlbeta	DRSC07310	-0.674	2.32
CG33258	DRSC09415	0.544	0.552
CG42750	DRSC02458	4.61	4.54
CG42750	DRSC03019	-0.484	-1.17
CG42750	DRSC03024	0.586	0.248
CG42750	DRSC21414	0.317	1.82
CG42750	DRSC23218	-1.15	-1.88
CG8838	DRSC00712	-0.0261	0.893
CG6015	DRSC15948	0.199	-2.06
CstF64	DRSC16616	-0.0131	-2.12
CG42808 + CG42807	DRSC06370	0.295	0.1
CG42808 + CG42807	DRSC06966	0.433	-0.09
CG11788	DRSC06084	-0.00856	-0.682
rho-6	DRSC02588	-1.06	-0.808
CG12945	DRSC14573	-0.502	1.99
CG15914	DRSC19739	0.0834	0.884
scyl	DRSC11392	-0.118	-0.0464
FipoQ	DRSC15413	0.611	-1.36
Mst84B	DRSC12579	0.105	0.18
sta	DRSC18838	2.25	1.45
CG30087	DRSC21677	-0.00121	0.357
CG14332	DRSC14811	0.569	0.0321
Cyp28d1	DRSC03298	-0.721	2.23
Cyp28d1	DRSC21331	1.39	-0.329
Osi15	DRSC12178	-0.0583	-0.345
CG6891	DRSC20016	0.608	-1.85
TwdlP	DRSC14734	-0.58	-0.72
CG5292	DRSC15763		0.1
Vsx1	DRSC18349	0.735	0.312
Vsx1	DRSC18350	1.33	3.93
Vsx1	DRSC23004	1	1
CG6287	DRSC02947	-0.35	-0.312
Tbcc	DRSC00223	-0.0927	0.493
CG31683 + CG18858	DRSC02703	-0.418	0.999
CG31886	DRSC03248	0.739	2.12
Lcp65Ad	DRSC11211	-2.27	0.578
Obp19a	DRSC20487	0.181	-1.17
Mtk	DRSC07475	1.82	-1.71
krimp	DRSC06578	-0.349	0.229
GstE3	DRSC06673	-0.443	1.39
Cht5	DRSC16470	7.39	-0.0431
CG10799	DRSC06002	-0.726	1.92
CG17294	DRSC02596	-0.397	0.173
Gpo3	DRSC01978	-1.22	0.0995
